Source: the supplement of paper PMC10849652
The other results are listed elsewhere or left out.

Protein sequences, listed by entry. Tags and fused reporters are not part of them. Lines headed by an entry give the natural chain unless they say otherwise; changes in a name come on top.
UniProt Q8TCT9: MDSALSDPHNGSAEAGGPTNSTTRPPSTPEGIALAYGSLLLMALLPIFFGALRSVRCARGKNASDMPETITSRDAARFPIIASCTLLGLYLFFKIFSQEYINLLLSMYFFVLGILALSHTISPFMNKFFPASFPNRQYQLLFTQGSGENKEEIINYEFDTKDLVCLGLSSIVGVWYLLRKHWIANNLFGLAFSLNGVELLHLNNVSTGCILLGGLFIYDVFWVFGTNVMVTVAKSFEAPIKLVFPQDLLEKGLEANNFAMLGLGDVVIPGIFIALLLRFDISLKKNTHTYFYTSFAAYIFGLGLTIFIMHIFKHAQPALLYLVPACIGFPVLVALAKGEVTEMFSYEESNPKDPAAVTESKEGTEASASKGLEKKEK
UniProt O43390: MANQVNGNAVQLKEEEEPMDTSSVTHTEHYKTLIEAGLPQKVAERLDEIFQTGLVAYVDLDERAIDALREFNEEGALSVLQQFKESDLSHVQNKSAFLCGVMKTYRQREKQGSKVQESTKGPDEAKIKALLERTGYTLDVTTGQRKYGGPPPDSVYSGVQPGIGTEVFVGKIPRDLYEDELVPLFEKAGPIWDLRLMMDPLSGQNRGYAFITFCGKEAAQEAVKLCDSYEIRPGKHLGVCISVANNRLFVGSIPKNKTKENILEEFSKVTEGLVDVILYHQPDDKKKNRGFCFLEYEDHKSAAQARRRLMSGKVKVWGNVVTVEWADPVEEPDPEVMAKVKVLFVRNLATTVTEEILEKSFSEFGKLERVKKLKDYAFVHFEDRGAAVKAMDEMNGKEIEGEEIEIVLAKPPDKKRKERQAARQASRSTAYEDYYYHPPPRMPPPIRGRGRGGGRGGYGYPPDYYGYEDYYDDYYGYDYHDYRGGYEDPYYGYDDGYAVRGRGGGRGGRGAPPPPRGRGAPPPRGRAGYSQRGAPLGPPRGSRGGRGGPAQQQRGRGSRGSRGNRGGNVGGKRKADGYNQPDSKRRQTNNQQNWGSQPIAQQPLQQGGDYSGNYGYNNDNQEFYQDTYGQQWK
UniProt Q8IWL3: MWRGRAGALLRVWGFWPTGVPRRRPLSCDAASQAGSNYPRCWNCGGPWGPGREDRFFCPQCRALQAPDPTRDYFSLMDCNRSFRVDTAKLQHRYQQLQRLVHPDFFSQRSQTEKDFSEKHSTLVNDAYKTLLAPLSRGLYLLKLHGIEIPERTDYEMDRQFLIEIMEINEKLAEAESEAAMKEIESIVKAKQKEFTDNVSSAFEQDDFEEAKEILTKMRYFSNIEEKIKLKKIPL
UniProt Q53FT3: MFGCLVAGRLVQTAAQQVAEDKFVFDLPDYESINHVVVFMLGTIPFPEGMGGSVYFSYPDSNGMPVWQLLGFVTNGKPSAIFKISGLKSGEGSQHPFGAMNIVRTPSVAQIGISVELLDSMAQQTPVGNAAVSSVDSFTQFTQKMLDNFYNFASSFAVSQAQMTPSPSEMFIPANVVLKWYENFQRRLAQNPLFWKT
UniProt Q9P2D0: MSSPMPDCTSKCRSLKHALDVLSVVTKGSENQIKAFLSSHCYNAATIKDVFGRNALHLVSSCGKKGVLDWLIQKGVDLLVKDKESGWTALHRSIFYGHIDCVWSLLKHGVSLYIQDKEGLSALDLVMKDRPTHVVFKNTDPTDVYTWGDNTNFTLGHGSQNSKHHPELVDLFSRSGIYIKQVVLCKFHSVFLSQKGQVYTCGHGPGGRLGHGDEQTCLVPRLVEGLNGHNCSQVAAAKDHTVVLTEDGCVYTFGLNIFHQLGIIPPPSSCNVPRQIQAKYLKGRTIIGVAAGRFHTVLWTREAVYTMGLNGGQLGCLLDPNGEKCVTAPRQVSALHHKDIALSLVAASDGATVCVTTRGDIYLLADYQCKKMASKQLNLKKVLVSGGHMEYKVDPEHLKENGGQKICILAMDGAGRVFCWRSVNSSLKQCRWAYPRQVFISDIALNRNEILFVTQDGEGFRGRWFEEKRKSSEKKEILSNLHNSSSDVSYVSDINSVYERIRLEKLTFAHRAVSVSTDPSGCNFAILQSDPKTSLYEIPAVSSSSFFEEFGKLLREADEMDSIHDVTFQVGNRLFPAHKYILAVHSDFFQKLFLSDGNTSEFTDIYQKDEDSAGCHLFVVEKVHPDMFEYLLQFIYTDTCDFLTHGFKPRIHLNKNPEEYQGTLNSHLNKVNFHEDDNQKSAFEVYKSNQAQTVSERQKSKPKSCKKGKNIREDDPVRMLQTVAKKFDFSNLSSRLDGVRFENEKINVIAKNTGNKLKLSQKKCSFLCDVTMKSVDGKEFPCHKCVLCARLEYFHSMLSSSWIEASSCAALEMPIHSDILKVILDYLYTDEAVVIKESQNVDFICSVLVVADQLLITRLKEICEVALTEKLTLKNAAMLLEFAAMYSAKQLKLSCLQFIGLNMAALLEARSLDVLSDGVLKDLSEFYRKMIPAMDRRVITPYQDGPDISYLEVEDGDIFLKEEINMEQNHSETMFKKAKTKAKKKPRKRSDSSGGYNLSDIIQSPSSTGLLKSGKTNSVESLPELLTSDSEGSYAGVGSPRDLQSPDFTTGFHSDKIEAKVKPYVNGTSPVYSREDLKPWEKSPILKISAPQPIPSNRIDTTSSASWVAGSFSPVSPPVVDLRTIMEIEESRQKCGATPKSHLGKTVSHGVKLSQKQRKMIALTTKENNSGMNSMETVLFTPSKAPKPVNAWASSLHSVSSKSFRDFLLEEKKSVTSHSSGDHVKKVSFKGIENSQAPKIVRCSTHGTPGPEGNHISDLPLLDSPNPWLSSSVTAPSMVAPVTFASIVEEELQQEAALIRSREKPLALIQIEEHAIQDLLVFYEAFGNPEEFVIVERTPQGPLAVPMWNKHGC
UniProt Q92902: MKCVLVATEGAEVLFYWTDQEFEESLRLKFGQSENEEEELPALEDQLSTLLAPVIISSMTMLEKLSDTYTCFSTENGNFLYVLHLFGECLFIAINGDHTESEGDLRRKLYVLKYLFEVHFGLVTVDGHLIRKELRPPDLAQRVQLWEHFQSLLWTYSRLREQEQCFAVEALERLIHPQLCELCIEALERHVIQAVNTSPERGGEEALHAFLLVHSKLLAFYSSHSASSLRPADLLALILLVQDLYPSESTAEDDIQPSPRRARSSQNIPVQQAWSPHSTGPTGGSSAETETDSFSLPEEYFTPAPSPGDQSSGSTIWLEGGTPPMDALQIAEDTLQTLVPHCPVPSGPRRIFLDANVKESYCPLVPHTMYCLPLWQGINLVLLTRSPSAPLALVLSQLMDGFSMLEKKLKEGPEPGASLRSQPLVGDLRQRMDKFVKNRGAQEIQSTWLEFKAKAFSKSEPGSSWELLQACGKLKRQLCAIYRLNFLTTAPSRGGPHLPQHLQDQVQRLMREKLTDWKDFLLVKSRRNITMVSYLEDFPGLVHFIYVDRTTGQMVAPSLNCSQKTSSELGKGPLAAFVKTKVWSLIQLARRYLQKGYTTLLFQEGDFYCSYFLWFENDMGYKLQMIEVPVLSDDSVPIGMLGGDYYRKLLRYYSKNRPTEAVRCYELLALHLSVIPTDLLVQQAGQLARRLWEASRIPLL
UniProt Q9BUJ2: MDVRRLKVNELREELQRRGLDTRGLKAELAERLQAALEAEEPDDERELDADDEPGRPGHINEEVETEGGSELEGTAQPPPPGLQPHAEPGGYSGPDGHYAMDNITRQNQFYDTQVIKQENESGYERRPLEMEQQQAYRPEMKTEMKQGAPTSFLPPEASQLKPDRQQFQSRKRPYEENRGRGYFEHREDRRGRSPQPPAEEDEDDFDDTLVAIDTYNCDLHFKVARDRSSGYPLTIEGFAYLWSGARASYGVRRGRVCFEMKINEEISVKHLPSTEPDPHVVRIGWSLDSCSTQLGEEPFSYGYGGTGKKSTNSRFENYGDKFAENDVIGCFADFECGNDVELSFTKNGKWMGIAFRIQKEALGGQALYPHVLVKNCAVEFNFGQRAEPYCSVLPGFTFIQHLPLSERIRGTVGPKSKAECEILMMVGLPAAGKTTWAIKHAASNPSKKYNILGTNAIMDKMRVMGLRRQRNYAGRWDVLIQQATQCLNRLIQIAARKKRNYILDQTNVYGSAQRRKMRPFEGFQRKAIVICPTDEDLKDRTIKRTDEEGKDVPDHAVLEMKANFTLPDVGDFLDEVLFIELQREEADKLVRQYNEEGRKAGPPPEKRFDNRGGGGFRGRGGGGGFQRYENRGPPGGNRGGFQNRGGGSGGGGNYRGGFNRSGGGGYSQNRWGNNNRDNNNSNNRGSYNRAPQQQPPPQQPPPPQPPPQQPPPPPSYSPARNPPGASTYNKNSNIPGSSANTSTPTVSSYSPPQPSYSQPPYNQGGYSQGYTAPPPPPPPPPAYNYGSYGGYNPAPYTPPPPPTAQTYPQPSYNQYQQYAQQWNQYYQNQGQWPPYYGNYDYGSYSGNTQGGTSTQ
UniProt Q9BUP3: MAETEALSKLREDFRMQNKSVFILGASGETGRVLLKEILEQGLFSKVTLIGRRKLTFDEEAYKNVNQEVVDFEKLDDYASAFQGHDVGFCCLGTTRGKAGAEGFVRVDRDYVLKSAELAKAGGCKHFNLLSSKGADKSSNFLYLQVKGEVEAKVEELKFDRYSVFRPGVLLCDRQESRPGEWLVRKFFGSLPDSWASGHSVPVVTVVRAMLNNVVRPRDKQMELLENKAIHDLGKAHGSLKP
UniProt O75146: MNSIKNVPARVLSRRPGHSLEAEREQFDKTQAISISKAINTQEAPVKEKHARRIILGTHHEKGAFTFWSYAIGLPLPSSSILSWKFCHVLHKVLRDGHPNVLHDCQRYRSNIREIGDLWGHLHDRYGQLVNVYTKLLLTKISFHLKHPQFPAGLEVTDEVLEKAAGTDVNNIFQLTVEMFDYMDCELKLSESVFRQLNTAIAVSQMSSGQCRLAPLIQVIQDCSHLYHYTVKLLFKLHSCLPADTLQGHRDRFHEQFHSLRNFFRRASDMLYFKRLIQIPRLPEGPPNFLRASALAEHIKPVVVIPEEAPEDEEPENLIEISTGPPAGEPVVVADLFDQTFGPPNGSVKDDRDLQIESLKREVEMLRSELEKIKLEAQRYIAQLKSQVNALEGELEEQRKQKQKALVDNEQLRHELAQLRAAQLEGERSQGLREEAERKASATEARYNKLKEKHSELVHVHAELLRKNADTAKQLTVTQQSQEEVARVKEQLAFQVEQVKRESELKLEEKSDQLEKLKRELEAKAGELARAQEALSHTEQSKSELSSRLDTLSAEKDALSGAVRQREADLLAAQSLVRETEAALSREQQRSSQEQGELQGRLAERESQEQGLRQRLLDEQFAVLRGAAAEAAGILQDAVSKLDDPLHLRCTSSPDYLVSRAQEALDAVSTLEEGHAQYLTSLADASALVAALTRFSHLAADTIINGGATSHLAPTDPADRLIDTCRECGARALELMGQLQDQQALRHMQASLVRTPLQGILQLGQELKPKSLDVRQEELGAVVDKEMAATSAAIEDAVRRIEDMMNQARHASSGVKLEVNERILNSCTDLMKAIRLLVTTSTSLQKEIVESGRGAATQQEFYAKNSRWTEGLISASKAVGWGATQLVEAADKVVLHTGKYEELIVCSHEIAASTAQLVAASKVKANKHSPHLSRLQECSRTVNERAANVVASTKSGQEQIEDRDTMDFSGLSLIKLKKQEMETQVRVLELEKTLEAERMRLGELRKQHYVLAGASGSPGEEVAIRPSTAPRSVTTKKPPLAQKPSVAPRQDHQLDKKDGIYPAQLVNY
UniProt P13747, whole entry, looked up: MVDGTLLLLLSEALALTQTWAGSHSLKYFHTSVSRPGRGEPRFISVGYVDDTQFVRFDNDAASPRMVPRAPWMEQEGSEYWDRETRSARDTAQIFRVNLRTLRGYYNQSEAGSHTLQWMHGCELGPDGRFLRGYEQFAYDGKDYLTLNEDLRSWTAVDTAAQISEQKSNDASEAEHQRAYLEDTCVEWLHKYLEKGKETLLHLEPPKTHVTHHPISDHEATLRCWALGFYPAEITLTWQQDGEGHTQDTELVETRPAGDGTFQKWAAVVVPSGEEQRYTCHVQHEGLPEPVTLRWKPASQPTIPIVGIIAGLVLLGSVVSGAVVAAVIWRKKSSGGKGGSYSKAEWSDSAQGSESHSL
UniProt P28356, whole entry, looked up: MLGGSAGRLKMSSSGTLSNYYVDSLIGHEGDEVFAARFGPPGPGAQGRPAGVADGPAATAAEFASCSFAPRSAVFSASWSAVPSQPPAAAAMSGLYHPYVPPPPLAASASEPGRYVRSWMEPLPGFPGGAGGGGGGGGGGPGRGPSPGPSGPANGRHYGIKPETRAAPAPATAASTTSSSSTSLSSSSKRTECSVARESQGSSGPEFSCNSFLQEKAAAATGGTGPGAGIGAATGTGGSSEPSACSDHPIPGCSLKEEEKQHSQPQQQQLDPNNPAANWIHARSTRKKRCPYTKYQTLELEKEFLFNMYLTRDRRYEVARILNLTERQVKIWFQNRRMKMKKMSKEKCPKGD
UniProt Q9BW72: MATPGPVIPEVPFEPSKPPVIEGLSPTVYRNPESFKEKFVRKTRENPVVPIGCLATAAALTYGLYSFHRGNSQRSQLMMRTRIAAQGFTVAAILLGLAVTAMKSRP

Legend:
Assay in all cases: log2 fold change, soluble protein after heating vs DMSO (PISA); higher = thermal stabilisation; K562 cells, 10 uM, 30 min; active = over 0.2 and 3.5 SD of the protein, either way, in both replicates (recomputed)
[1] = compound: CC1=C(C=C(C=C1)NC(=O)C2=CC(=CC=C2)C(C)(C)C#N)NC3=CC4=C(C=C3)N=CN(C4=O)C
In short: (§1)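 Quantification of soluble protein used TMTpro 16plex LC-MS/MS, with channel sums equalised. Samples were the supernatant after 21,000xg for 90 min of pooled aliquots from K562 cells (2×10^6 cells/mL) treated with 10 μM compound for 30 min, heated for 3 min over 48°C-58°C, and extracted in PBS with 0.5% NP-40 at 4°C. Values, from duplicates, describe thermal stability against control samples on a log2 fold-change scale.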

[2] = compound: CC1=C(C=C(C=C1)NC(=O)C2=CC(=CC=C2)N(C)C)NC(=O)C3=CC=C(C=C3)O
In short: as §1

[3] = compound: CC1=CC=C(C=C1)SC2=C3C=C(SC3=CN=C2)C(=O)N
In short: as §1

[4] = compound: CC1=NC(=CC=C1)C2=C(N=C(N2)C(C)(C)C)C3=CC4=NC=CN=C4C=C3
In short: as §1

Nexturastat A = compound: CCCCN(Cc1ccc(C(=O)NO)cc1)C(=O)Nc1ccccc1 [Nexturastat A]
In short: as §1

vemurafenib = compound: CCCS(=O)(=O)Nc1ccc(F)c(C(=O)c2c[nH]c3ncc(-c4ccc(Cl)cc4)cc23)c1F [vemurafenib]
In short: as §1

[5] = compound: CCCS(=O)(=O)Nc1ccc(F)c(C(=O)c2c[nH]c3ncc(Cl)cc23)c1F
In short: as §1

[6] = compound: CCCc1cc(C)[nH]c(=O)c1CNC(=O)c1cc(-c2ccnc(N3CCN(C)CC3)c2)cc2c1cnn2C(C)C
In short: as §1

barasertib = compound: CCN(CCCOc1ccc2c(Nc3cc(CC(=O)Nc4cccc(F)c4)[nH]n3)ncnc2c1)CCOP(=O)(O)O [barasertib]
In short: as §1

[7] = compound: CC[C@@H]1C(=O)N(C)c2cnc(Nc3ccc(C(=O)NC4CCN(C)CC4)cc3OC)nc2N1C1CCCC1
In short: as §1

volasertib = compound: CC[C@@H]1C(=O)N(C)c2cnc(Nc3ccc(C(=O)N[C@H]4CC[C@H](N5CCN(CC6CC6)CC5)CC4)cc3OC)nc2N1C(C)C [volasertib]
In short: as §1

[8] = compound: CC[C@H](C)N1C=C(C2=C(C=C(C=C21)C3=CN=C(C=C3)N4CCNCC4)C(=O)NCC5=C(C=C(NC5=O)C)C)C
In short: as §1

epoxomicin = compound: CC[C@H](C)[C@@H](C(=O)N[C@@H]([C@@H](C)O)C(=O)N[C@@H](CC(C)C)C(=O)[C@]1(CO1)C)NC(=O)[C@H]([C@@H](C)CC)N(C)C(=O)C [epoxomicin]
In short: as §1

[9] = compound: CCn1cc(-c2ccnc3[nH]c(-c4cccc(CN(C)C)c4)cc23)c(-c2ccc(NC(=O)N(C)C)cc2)n1
In short: as §1

[10] = compound: CN(C)CC(=O)Nc1ccc2[nH]c(=O)c3ccccc3c2c1
In short: as §1

rosiglitazone = compound: CN(CCOC1=CC=C(C=C1)C[C@H]2C(=O)NC(=O)S2)C3=CC=CC=N3 (racemic) [rosiglitazone]
In short: as §1

[11] = compound: CN1CCC(CNc2ccc3ncc(-c4cccc(OC(F)(F)F)c4)n3n2)CC1
In short: as §1

givinostat = compound: CCN(CC)Cc1ccc2cc(COC(=O)Nc3ccc(C(=O)NO)cc3)ccc2c1 [givinostat]
In short: as §1

[12] = compound: CCn1c(C(=O)N(C2CC2)C2CC2)cc2c3c(ncn3C)c(Nc3cc(C)n(C)n3)nc21
In short: as §1

[13] = compound: CN1C2=C(C3=C1C(=O)N(N=C3)CC4=CC(=CC=C4)N)SC(=C2)S(=O)C
In short: as §1

Measured: log2 fold change

HM13 (UniProt Q8TCT9)
inactive: [1] -0.057 | [2] 0.024 | [3] 0.036 | [4] -0.025 | Nexturastat A -0.001 | vemurafenib 0.029 | [5] 0.012 | [6] 0.112 | barasertib -0.005 | [7] 0.064 | volasertib 0.047 | [8] -0.004 | epoxomicin 0.012 | [9] -0.008 | [10] -0.009 | rosiglitazone 0.009 | [11] -0.003

HMCES (UniProt Q96FZ2)
inactive: [1] 0.044 | [2] 0.05 | [3] -0.102 | Nexturastat A -0.044 | [5] 0.097 | [6] -0.203 | givinostat -0.025 | barasertib 0.089 | [7] -0.096 | volasertib 0.009 | [8] 0.032 | epoxomicin 0.213 | [12] -0.1 | rosiglitazone 0.157 | [13] -0.107

HNRNPR (UniProt O43390)
inactive: [1] 0.169 | [3] -0.207 | [4] -0.168 | Nexturastat A 0.218 | [5] -0.226 | [6] 0.029 | barasertib -0.139 | [7] 0.138 | volasertib -0.173 | [8] 0.008 | epoxomicin -0.097 | rosiglitazone -0.011

HSCB (UniProt Q8IWL3)
inactive: [1] 0.064 | [2] -0.078 | [3] 0.019 | [4] -0.051 | Nexturastat A -0.22 | vemurafenib 0.054 | [5] -0.009 | [6] 0.084 | givinostat 0.202 | volasertib -0.08 | [8] 0.099 | epoxomicin 0.036 | [12] 0.093 | [9] 0.025 | [10] 0 | [13] -0.097 | [11] -0.078

HIKESHI (UniProt Q53FT3)
inactive: [1] -0.138 | [2] -0.051 | [3] 0.003 | [4] -0.011 | Nexturastat A -0.037 | vemurafenib 0.027 | [5] 0.003 | [6] -0.033 | givinostat -0.008 | barasertib 0.011 | [7] -0.116 | volasertib -0.178 | [8] 0.022 | epoxomicin -0.013 | [9] 0.001 | [10] 0.008 | [13] -0.018 | [11] 0.077

IBTK (UniProt Q9P2D0)
inactive: [1] -0.067 | [2] 0.061 | [3] -0.222 | [4] -0.067 | Nexturastat A 0.217 | [5] -0.082 | barasertib 0.125 | [7] 0.031 | volasertib -0.116 | [8] 0.003 | epoxomicin -0.327 | [9] 0.052 | rosiglitazone 0.005 | [13] 0.306 | [11] -0.013

HPS1 (UniProt Q92902)
inactive: [1] -0.102 | [2] 0.046 | [3] -0.062 | vemurafenib -0.028 | [5] -0.058 | [6] -0.412 | givinostat 0.046 | barasertib 0.036 | [7] 0.056 | volasertib -0.128 | [8] 0.039 | [12] -0.039 | [10] -0.011 | rosiglitazone 0.085

HNRNPUL1 (UniProt Q9BUJ2)
inactive: [1] -0.063 | [2] -0.058 | [3] -0.013 | [4] 0.03 | Nexturastat A 0.024 | vemurafenib 0.032 | [5] -0.033 | [6] 0.024 | givinostat 0.046 | barasertib 0.04 | [7] 0.051 | volasertib -0.069 | [8] 0.014 | epoxomicin 0.019 | [9] 0.004 | [10] 0.013 | [13] 0.099 | [11] 0.031

HTATIP2 isoform 3 (UniProt Q9BUP3)
inactive: [1] 0.065 | [2] -0.093 | [3] 0.011 | [4] -0.007 | Nexturastat A -0.14 | vemurafenib 0.057 | [5] 0.039 | [6] 0.059 | givinostat 0.012 | barasertib 0.041 | [7] -0.029 | volasertib -0.168 | [8] 0.035 | epoxomicin 0.008 | [9] -0.013 | [10] 0.009 | [13] -0.016 | [11] -0.148

HIP1R (UniProt O75146)
active: volasertib -0.268
inactive: [1] -0.028 | [2] -0.053 | [3] 0.003 | [4] -0.002 | Nexturastat A -0.047 | vemurafenib -0.026 | [5] 0.036 | [6] -0.006 | givinostat 0.059 | barasertib 0.041 | [7] -0.035 | [8] 0.015 | epoxomicin 0.051 | [9] -0.016 | [10] -0.017 | [13] 0.026 | [11] -0.134

HNRNPK isoform 3 (UniProt P61978)
inactive: [1] -0.015 | [2] 0.027 | [4] 0.066 | Nexturastat A 0.085 | vemurafenib -0.066 | [6] -0.067 | givinostat 0.062 | barasertib -0.136 | [7] 0.121 | [8] -0.062 | epoxomicin -0.035 | [9] 0.032 | [10] 0.012 | [13] -0.057 | [11] 0.076

HRAS (UniProt P01112)
inactive: [1] -0.042 | [2] -0.065 | [3] -0.031 | [4] 0.096 | Nexturastat A 0.147 | vemurafenib 0.064 | [5] -0.083 | [6] 0.089 | givinostat -0.065 | barasertib 0.063 | [7] -0.014 | volasertib 0.057 | [8] -0.028 | epoxomicin 0.104 | [9] -0.082 | [10] -0.125 | [13] -0.033 | [11] 0.048

HSPA8 (UniProt E9PN89)
inactive: [1] -0.158 | [3] -0.261 | [4] -0.144 | Nexturastat A -0.019 | vemurafenib -0.276 | [5] -0.507 | [6] -0.689 | givinostat 0.182 | barasertib 0.03 | [7] 0.167 | volasertib 0.114 | [8] -0.205 | epoxomicin -0.278 | [9] 0.178 | [10] -0.139 | [11] -0.154

2 consecutive entries from above, for reference:
HIP1R (UniProt O75146)
active: volasertib -0.268
inactive: [1] -0.028 | [2] -0.053 | [3] 0.003 | [4] -0.002 | Nexturastat A -0.047 | vemurafenib -0.026 | [5] 0.036 | [6] -0.006 | givinostat 0.059 | barasertib 0.041 | [7] -0.035 | [8] 0.015 | epoxomicin 0.051 | [9] -0.016 | [10] -0.017 | [13] 0.026 | [11] -0.134

HNRNPK isoform 3 (UniProt P61978)
inactive: [1] -0.015 | [2] 0.027 | [4] 0.066 | Nexturastat A 0.085 | vemurafenib -0.066 | [6] -0.067 | givinostat 0.062 | barasertib -0.136 | [7] 0.121 | [8] -0.062 | epoxomicin -0.035 | [9] 0.032 | [10] 0.012 | [13] -0.057 | [11] 0.076

(listing goes on)

HLA-E (UniProt P13747)
inactive: [1] -0.065 | [3] 0.061 | [4] 0.096 | Nexturastat A -0.065 | [5] -0.173 | barasertib -0.097 | volasertib -0.029 | epoxomicin -0.018 | [9] 0.004 | rosiglitazone 0.095 | [13] 0.033 | [11] 0.056

HOXD9 (UniProt P28356)
inactive: vemurafenib 0.059 | givinostat -0.044 | [7] 0.039 | [12] 0.114 | [9] -0.018 | [10] -0.017 | [13] 0.046 | [11] -0.1

HIGD2A (UniProt Q9BW72)
inactive: [4] 0.044 | Nexturastat A 0.181 | givinostat -0.006 | epoxomicin -0.073 | [12] 0.254

HSPBP1 (UniProt Q9NZL4)
inactive: Nexturastat A -0.021 | epoxomicin 0.011
